# Test results as given in paper doi:10.1101/2021.06.22.449398.
# These are yes or no findings as the source states them, for the method shown. Binding seen in cells or lysates may run through a third protein. Some entries that bind do so weakly or less than the wild type.
# B1: KHNYN (endogenous), O15037 1-678 (protein)
# chain: MPTWGARPASPDRFAVSAEAENKVREQQPHVERIFSVGVSVLPKDCPDNPHIWLQLEGPKENASRAKEYLKGLCSPELQDEIHYPPKLHCIFLGAQGFFLDCLAWSTSAHLVPRAPGSLMISGLTEAFVMAQSRVEELAERLSWDFTPGPSSGASQCTGVLRDFSALLQSPGDAHREALLQLPLAVQEELLSLVQEASSGQGPGALASWEGRSSALLGAQCQGVRAPPSDGRESLDTGSMGPGDCRGARGDTYAVEKEGGKQGGPREMDWGWKELPGEEAWEREVALRPQSVGGGARESAPLKGKALGKEEIALGGGGFCVHREPPGAHGSCHRAAQSRGASLLQRLHNGNASPPRVPSPPPAPEPPWHCGDRGDCGDRGDVGDRGDKQQGMARGRGPQWKRGARGGNLVTGTQRFKEALQDPFTLCLANVPGQPDLRHIVIDGSNVAMVHGLQHYFSSRGIAIAVQYFWDRGHRDITVFVPQWRFSKDAKVRESHFLQKLYSLSLLSLTPSRVMDGKRISSYDDRFMVKLAEETDGIIVSNDQFRDLAEESEKWMAIIRERLLPFTFVGNLFMVPDDPLGRNGPTLDEFLKKPARTQGSSKAQHPSRGFAEHGKQQQGREEEKGSGGIRKTRETERLRRQLLEVFWGQDHKVDFILQREPYCRDINQLSEALLSLNF
# Molecular target: GFP-tagged short isoform of zinc finger antiviral protein (GFP-ZAP-S) (human), Q7Z2W4
# Assay: co-IP
# Settings: remark: other sources report otherwise
binder,measurement,value
B1,binding,binds
